Assay: general procedure: Fmoc solid-phase peptide synthesis; 2-CTC resin; Fmoc-Xxx-Wang resin (loading 0.60 mmol/g; Bachem); diisopropyl carbodiimide/HOBT; HBTU/DIEA; HATU/DIEA in solution
Details: conjugation step

Substance	conjugation yield
AF-Cit-Lys(PEG5-ma)-Tyr	16% yield

Same assay, conditions: conjugation step, UV purity (UPLC-MS)

Substance	final HPLC purity
AF-Cit-Lys(PEG5-ma)-Tyr	100% UV purity

Same assay, conditions: late stage modification step

Substance	step yield
MMAF-Cit-Lys(ma)-Tyr-OH	29% yield

Same assay, conditions: late stage modification step, UV purity (UPLC-MS)

Substance	final HPLC purity
MMAF-Cit-Lys(ma)-Tyr-OH	95% UV purity

Same assay, conditions: whole synthesis, UV purity (UPLC-MS)

Substance	purity (crude or final not stated)
ACit-Lys(PEG4-Mal-Cys-Ac)-Phe-OH	96%
ACit-Phe-Lys(PEG4-Mal-Cys-Ac)-OH	96%
AF-Arg-Lys(PEG4-Mal)-Phe-OH	96%
AF-Arg-Lys(PEG4-Mal-Cys-Ac)-Phe-OH	94%
AF-Arg-Phe-Lys(PEG4-Mal)-OH	98%
AF-Arg-Phe-Lys(PEG4-Mal-Cys-Ac)-OH	90%
AF-Cit-Lys(PEG4-Mal-Cys-Ac)-Phe-OH	90%
DM1-Mal-Phe-Cit-Lys(PEG4-Mal-Cys-Ac)-Phe-OH	97%
DM1-Mal-Phe-Cit-Phe-Lys(PEG4-Mal-Cys-Ac)-OH	94%
DM1-Mal-Phe-Lys-Lys(PEG4-Mal-Cys-Ac)-Phe-OH	98%
DM1-Mcc-Cit-Lys(PEG5-Mal-Cys-Ac)-Tyr-OH	89%
DM1-Mcc-Phe-Cit-Lys(PEG5-Mal-Cys-Ac)-Tyr-OH	99%
DM1-Mcc-Phe-Lys(PEG5-Mal-Cys-Ac)-Tyr-OH	89%

Source: patent US20260191982A1 (Genome & Company, Inc., priority 2022, published 2026)
